Results are given in words; binding and its absence hold for the method and conditions named. Some results given as binding are weak or reduced against the parent protein; the word gives no strength.
Biological target: APOER2 intracellular domain (Arg645 to Pro700) (UniProt Q14114)
Test: two-hybrid

Chains of the proteins cited; added tags and fusions are not shown. Lines headed by an entry give the natural chain unless they say otherwise; changes in a name come on top. A line that says so, or that is headed by a name, gives the form on record, which may keep a tag or linker.
APOER2 intracellular domain (Arg645 to Pro700) (Q14114, form named): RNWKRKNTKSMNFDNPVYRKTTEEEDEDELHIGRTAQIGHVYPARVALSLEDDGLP

binding: binds
B1: SNX31 (protein, UniProt Q8N9S9-1 1-440)
chain: MKMHFCIPVSQQRSDALGGRYVLYSVHLDGFLFCRVRYSQLHGWNEQLRRVFGNCLPPFPPKYYLAMTTAMADERRDQLEQYLQNVTMDPNVLRSDVFVEFLKLAQLNTFDIATKKAYLDIFLPNEQSIRIEIITSDTAERVLEVVSHKIGLCRELLGYFGLFLIRFGKEGKLSVVKKLADFELPYVSLGSSEVENCKVGLRKWYMAPSLDSVLMDCRVAVDLLYMQAIQDIEKGWAKPTQAQRQKLEAFQKEDSQTKFLELAREVRHYGYLQLDPCTCDYPESGSGAVLSVGNNEISCCITLPDSQTQDIVFQMSRVKCWQVTFLGTLLDTDGPQRTLNQNLELRFQYSEDSCWQWFVIYTKQAFLLSSCLKKMISEKMVKLAAENTEMQIEVPEQSKSKKYHIQQSQQKDYSSFLSRKSKIKIAKDDCVFGNIKEEDL

Reference: doi:10.1101/2024.12.31.630881
